Data taken from PubChem BioAssay AID651744 (Broad Institute, 2012).
Screen size: about 5,600 compounds; about 3,100 (55%) were called active. So high a share suggests a set chosen from earlier hits. Inconclusive results, whose numbers are uncertain, are shown with a selection of clear calls.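 Rule for the calls: active = mean loss of cell viability signal at or above a set limit, and enough replicates individually reaching it; inconclusive = meets only the mean limit or only the replicate share; inactive = meets neither condition.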

Assay: NIH/3T3 fibroblast cytotoxicity, confirmation, cytotoxicity control, cell-based, cherry-pick, single point, set 2 (AID 651744);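 note: 0% = median of neutral control wells and 100% = median of positive control wells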
Details: NIH/3T3 viability, CellTiter-Glo ATP luminescence, 90 h; at 24.9 µM; stronger effect = higher value

SMILES | inhibition
Cc1ccccc1-c1ccc([C@H]2[C@@H](CO)N3CCCCN(C(=O)Cc4ccccn4)C[C@@H]23)cc1 | inconclusive: 27.4%
COc1ccc(-c2ccc([C@H]3[C@@H](CO)N4CCCCN(C(=O)Cc5ccccc5)C[C@@H]34)cc2)cc1 | inconclusive: 17.3%
N#Cc1cccc(-c2ccc([C@H]3[C@@H](CO)N4CCCCN(C(=O)Cc5ccccc5)C[C@H]34)cc2)c1 | active: 55.7%
